From paper PMC5871853, “First insights of peptidoglycan amidation in Gram-positive bacteria - the high-resolution crystal structure of Staphylococcus aureus glutamine amidotransferase GatD” (Scientific Reports, 2018) come the findings set out here.

Chains of the proteins cited; added tags and fusions are not shown.
UniProt A0A0H2WZ38: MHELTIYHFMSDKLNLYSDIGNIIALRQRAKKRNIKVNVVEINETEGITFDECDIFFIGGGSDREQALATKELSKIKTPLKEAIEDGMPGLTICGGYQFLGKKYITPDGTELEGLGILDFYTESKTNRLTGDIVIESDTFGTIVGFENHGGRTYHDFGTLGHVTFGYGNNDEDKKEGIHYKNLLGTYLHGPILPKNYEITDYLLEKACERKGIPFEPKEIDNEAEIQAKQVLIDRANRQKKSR

Results are given in words; binding and its absence hold for the method and conditions named.

The target of the test is S. aureus GatD (crystallised construct, from pOPINF) (Staphylococcus aureus strain COL). The test can be described thus: crystal structure; GatD alone, space group P2(1)2(1)2(1), 2 molecules in the asymmetric unit, 1.85 Å; the dimer was judged by visual inspection and PISA software; both purified.

As to “S. aureus GatD (crystallised construct, from pOPINF) (from UniProt A0A0H2WZ38 1-243) (enzyme)”, the binding result was “no binding”.
